Patent US12440519B2 (Iowa State University Research Foundation, Inc., priority 2017, dated 2025)
Counter-ions that a name gives are not always drawn.

Assay: Recovery from spiked sSIM by UHPLC-ECD

CC(C)NC[C@H](O)c1ccc(O)c(O)c1 [isoproterenol, (−)-Isoproterenol hydrochloride]
% Agreement (1 μg spiked in sSIM): 81.00% | % Agreement (10 μg spiked in sSIM): 92.20% | Amount Recovered (10 μg spiked in sSIM): 9.22 µg | % Agreement (100 μg spiked in sSIM): 90.63% | Amount Recovered (100 μg spiked in sSIM): 90.63 µg
